Laboratory results published in patent US20090297591A1, “Compositions And Methods For The Transdermal Delivery Of Pharmaceutical Compounds” (priority 2008, published 2009).
Some results were stated once for a whole list of compounds, not compound by compound.

Assay: Solubility of the active ingredient in polyacrylate adhesive
Assay type: physicochemical
Conditions: base form

Compound: Cc1ccc(O)c([C@H](CCN(C(C)C)C(C)C)c2ccccc2)c1 [Tolterodine]
- Solubility in polyacrylate adhesives: greater than 10%
